Values from PubChem BioAssay AID602196 (INSERM, 2012).
Shown is an unselected part of about 23,000 reagents tested. In the full data, 455 (2%) were called active. 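Active includes both protection and sensitisation; some change values fall well beyond the stated -50 to +50 range.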 Not all columns of the deposit are shown. Not given: the amount of reagent.

Test: 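Knock-downs that protect lung cancer cells from cisplatin or sensitise them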
System: human A549 lung cancer cells
Reagent: siRNA pair against human genes
Time to read-out: 48 h transfection before cisplatin; time from cisplatin to read-out not stated
Challenge: cisplatin at a dose killing half of control-siRNA cells; exact dose and duration not given
Measured: 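Cisplatin cell death as a shift from the 50% death seen with control siRNA; siRNAs toxic or growth-blocking alone scored 0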
Scale: two-siRNA summed score (-2 to +2): higher = both siRNAs protect from cisplatin killing; -2 means both sensitise
Hit rule: 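siRNAs harmful alone (LDH or WST-1) get 0; others get +1 for less and -1 for more cisplatin killing; genes are active when the two siRNAs give the same sign, summing to ±2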
Calls: active = both siRNAs shift cisplatin killing the same way; inactive = no consistent shift, or siRNA harmful alone

gene | two-siRNA summed score (-2 to +2) | Call
LOC441884 | 0 | inactive
MRPL53 | 0 | inactive
TJP1 | 0 | inactive
CCPG1 | 0 | inactive
CLCNKA | 1 | inactive
LOC441916 | 0 | inactive
LOC390084 | 0 | inactive
LOC400856 | 0 | inactive
ABHD11 | 0 | inactive
CYP2J2 | 0 | inactive
KIAA0650 | 0 | inactive
ZNF407-AS1 | 0 | inactive
LOC440062 | 1 | inactive
OR3A2 | 0 | inactive
ADAMTSL2 | 0 | inactive
MDH2 | -1 | inactive
SEC24C | -1 | inactive
CALML4 | 0 | inactive
LOC400573 | 0 | inactive
TMEM144 | 0 | inactive
TPT1P8 | 0 | inactive
SLC17A2 | 1 | inactive
GSTA3 | 0 | inactive

3 entries from above, reformatted:
CYP2J2
- two-siRNA summed score (-2 to +2): 0
- Call: inactive

KIAA0650
- two-siRNA summed score (-2 to +2): 0
- Call: inactive

ZNF407-AS1
- two-siRNA summed score (-2 to +2): 0
- Call: inactive
